Measured values published in PubChem BioAssay AID1487 (National Center for Advancing Translational Sciences (NCATS), 2009).
“And” between values parts separate entries of the source, which are not always exact repeats. Equal values may be shown once. The list shows a part of the results. Further columns of the screen follow, without active or inactive calls. Most of these compounds were active or inconclusive in the main read-out, so they are no random draw. Words in brackets tell the shape of the fitted curve; partial curves, single points and poor fits give uncertain potencies.

Experiment: qHTS Assay for Modulators of Lamin A Splicing
Conditions: HeLa LMNA splicing GFP/RFP minigene ratio, 48 h
In short: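 S3 HeLa stable clones carrying a lamin A-EGFP splicing minigene plus DsRed2 were seeded at 600 cells/well in Opti-MEM with 2% FBS, pin-dosed and incubated 48 h at 37°C. Acumen cytometry (488 nm) gave the GFP/RFP total-intensity ratio.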

[1] = measured here: GFP splicing reporter channel
[2] = measured here: RFP viability control channel

Row | SMILES | AC50 [1] | AC50 [2]
1 | CCc1ccc(CCC(=O)Nc2ccccc2C(=O)O)o1 | 15.8 µM [falling, single point] | –
2 | [O-]/C(=C(\C(=S)NCCN1CCOCC1)[n+]1ccccc1)c1ccc(Cl)s1 | – | 35.5 µM [rising, partial curve, poor fit]
3 | O=C(Oc1c(CN2CCOCC2)cc(Cl)c2cccnc12)c1ccccc1Cl | 5.62 µM [falling, full curve] | 5.01 µM [falling, full curve]
4 | CC(=Nc1ccc(O)cc1)c1sc2ccccc2c1O | – | 14.1 µM [rising, partial curve]
5 | COc1ccc(C(=O)COC(=O)c2ccc(N(C)C)cc2)cc1 | 0.0126 µM [rising, full curve, poor fit] | –
6 | COc1ccc(C(=O)Nc2ccc3c(c2)CCCN3S(=O)(=O)c2ccc(C)cc2)cc1 | 5.62 µM [rising, partial curve, poor fit] | –
7 | COc1cc2cc3c(N)c(C(=O)NCc4ccco4)sc3nc2cc1OC | – | 17.8 µM [rising, partial curve, poor fit]
8 | CC(C)c1ccc(C(=O)Nc2ccc(N3CCOCC3)cc2)cc1 | 35.5 µM [rising, single point] | 35.5 µM [rising, single point]
9 | O=C(Nc1cccc(F)c1)c1sc(Cl)nc1-c1ccccc1 | – | 35.5 µM [rising, single point]
10 | O=C(Cn1nc(-c2ccccc2)ccc1=O)Nc1ccc(N2CCN(C(=O)c3cccs3)CC2)cc1 | 1.41 µM [falling, partial curve] | 3.55 µM [falling, partial curve, poor fit]
11 | N#Cc1c2ccc(O)cc2n2ccccc12 | 5.01 µM [falling, full curve, poor fit] | –
12 | Cc1cccc(C)c1NC(=O)N1CCN(c2nc3ccccc3s2)CC1 | – | 8.91 µM [rising, partial curve]
13 | O=C(c1noc2c1CCCC2)N1CCOCC1 | – | 0.631 µM [rising, full curve, poor fit]
14 | CC1=C(\C=C/C(C)=C/C=C\C(C)=C\C(=O)O)C(C)(C)CCC1 | 1.78 µM [falling, partial curve, poor fit] and 251 nM [falling, full curve] | 0.282 µM [falling, full curve, poor fit]
15 | CCOc1ccc(C(=O)N/N=C/c2cc([N+](=O)[O-])cs2)cc1 | 0.0224 µM [rising, full curve, poor fit] | 0.02 µM [rising, full curve, poor fit]
16 | CCCn1c(N2CCN(C(=O)Nc3ccccc3)CC2)nc2ccccc21 | 0.02 µM [rising, full curve, poor fit] | –
17 | COCc1cc(=O)[nH]c(Nc2nc3ccccc3o2)n1 | – | 25.1 µM [rising, single point]
18 | COC(=O)c1[nH]c2cc(OC)c(OC)cc2c1NC(=O)c1cccc(OC)c1 | – | 0.355 µM [falling, partial curve]
19 | CCOc1ccc(CN(C(=O)c2cc3ccccc3oc2=O)C2CC2)cc1 | – | 14.1 µM [rising, single point]

Row | SMILES | AC50 [1] | AC50 [2]
20 | Fc1ccc(Cn2ccc(-c3cnc(-c4ccccc4)s3)n2)cc1 | 20 µM [rising, partial curve, poor fit] | 20 µM [rising, single point]
21 | CC1(c2ccccc2Cl)NC(=O)N(CC(=O)NCCC2=CCCCC2)C1=O (stereo unspecified) | – | 11.2 µM [rising, partial curve, poor fit]
22 | O=S1(=O)C=C(Sc2nc3cc(Cl)ccc3o2)c2ccccc21 | – | 5.62 µM [rising, single point]
23 | COc1ccc(S(=O)(=O)N2CCN(C(=O)c3cc(-c4ccc(Br)cc4)n[nH]3)CC2)cc1OC | 0.562 µM [falling, full curve] | –
24 | CN(c1ccccc1C(=O)NCc1ccccn1)S(C)(=O)=O | 11.2 µM [falling, partial curve] | –
25 | O=C(COc1ncnc2ccccc12)Nc1ccc(Cl)c([N+](=O)[O-])c1 | – | 11.2 µM [rising, partial curve]
26 | CCOC(=O)C1C(=O)C=C(c2ccc(C)cc2)CC1c1cccc([N+](=O)[O-])c1 (stereo unspecified) | – | 15.8 µM [rising, partial curve]
27 | CCOc1ccc(CSC(=N)N)cc1[N+](=O)[O-] | – | 17.8 µM [rising, single point]
28 | Cc1ccsc1CNn1cnnc1SCc1ccc(Cl)cc1 | – | 17.8 µM [rising, single point]
29 | O=C(/C=C/c1ccc(Br)cc1)NC(=S)NNC(=O)c1ccco1 | – | 14.1 µM [rising, single point]
30 | FC(F)(F)c1cnc(Oc2ccccc2-c2nnc(-c3ccc(Cl)cc3)o2)c(Cl)c1 | – | 12.6 µM [rising, partial curve]
31 | O=C(O)c1cc(O)c2c(c1)[O][Bi][O]2 | 0.01 µM [rising, full curve, poor fit] | 0.794 µM [rising, full curve]
32 | CC(C)CNS(=O)(=O)c1ccc(S(=O)(=O)N2CCC3(CC2)OCCO3)cc1 | – | 12.6 µM [rising, single point]
33 | CCN1CCN(C(c2cccc(OC)c2)c2c(O)cc(C)n(Cc3ccco3)c2=O)CC1 (stereo unspecified) | – | 35.5 µM [rising, single point]
34 | CC(NC(=O)c1ccc(Cn2c(SCc3ccccc3)nc3cccnc32)cc1)c1ccccc1 (stereo unspecified) | 0.02 µM [rising, full curve, poor fit] | –
35 | O=C(Nc1ccccc1C(F)(F)F)N1Cc2ccccc2Oc2ncccc21 | 0.2 µM [rising, partial curve, poor fit] | –
36 | Cn1cc(C(=O)c2ccc(Cl)cc2Cl)cc1C=O | 0.0316 µM [falling, full curve, poor fit] | –
37 | Nc1ccn([C@@H]2CC[C@H](CO)O2)c(=O)n1 | – | 3.16 µM [falling, single point]
38 | COc1ccc(-n2cc(-c3ccccc3)nc2SC)cc1 | – | 12.6 µM [rising, single point]

Row | SMILES | AC50 [1] | AC50 [2]
39 | CCC1(O)CC2CN(CCc3c([nH]c4ccccc34)[C@@](C(=O)OC)(c3cc4c(cc3OC)N(C)C3[C@]45CCN4CC=C[C@@](CC)([C@@H](OC(C)=O)[C@]3(O)C(=O)OC)[C@H]45)C2)C1 (stereo partly specified) | 0.178 µM [falling, full curve] | 0.178 µM [falling, full curve]
40 | O=[N+]([O-])c1ccc(OCc2cnc(Cl)s2)c([N+](=O)[O-])c1 | – | 7.08 µM [falling, full curve, poor fit]
41 | FC(F)(F)c1nnc(-c2ccccc2)nc1Oc1ccc(Cl)cc1Cl | 35.5 µM [falling, single point] | 35.5 µM [falling, single point]
42 | Clc1ccc([C@H](Cn2ccnc2)OCc2csc3c(Cl)cccc23)c(Cl)c1 | – | 3.98 µM [rising, partial curve, poor fit]
43 | CCCCC(C)(O)C/C=C/[C@H]1[C@H](O)CC(=O)[C@@H]1CCCCCCC(=O)OC (stereo partly specified) | 0.447 µM [falling, full curve, poor fit] | 22.4 µM [rising, single point] and 794 nM [rising, partial curve, poor fit]
44 | O=c1oc2c(CN3CCCCC3)c(O)ccc2c2c1CCCCC2 | – | 0.355 µM [rising, full curve, poor fit]
45 | Cc1cc(C(=O)Nc2ccc(Cl)cc2)c2c(C)nn(-c3ccccc3)c2n1 | 0.178 µM [falling, full curve, poor fit] | 0.398 µM [falling, full curve, poor fit]
46 | O=C(c1ccco1)N1CCN(C(=O)C2CCCc3c2[nH]c2ccc(Cl)cc32)CC1 (stereo unspecified) | – | 11.2 µM [rising, partial curve]
47 | c1ccn2c(SCc3ccc4c(c3)OCO4)nnc2c1 | 35.5 µM [rising, single point] | 22.4 µM [rising, single point]
48 | CC(=O)[C@@H]1[C@@H](C(=O)c2ccc(C)cc2)[C@]2(C(=O)Nc3ccccc32)[C@H]2C=Cc3cc(F)ccc3N12 | – | 25.1 µM [rising, single point]
49 | CCOC(=O)c1cc(-c2ccco2)nc2c1c(C)nn2CCC#N | – | 35.5 µM [rising, single point]
50 | COc1ccc(CCNC(=O)c2[nH]c(C)c(C(C)=O)c2C)cc1 | – | 14.1 µM [rising, partial curve, poor fit]
51 | CN1CCN(C(=S)C(=O)Nc2ccc(Br)cc2)CC1 | – | 1.41 µM [falling, partial curve]
52 | COc1ccccc1OCCNC(=O)Nc1cc(F)c(F)cc1Cl | – | 35.5 µM [falling, single point]
53 | O=C(/C(C=Nc1cccc(C(F)(F)F)c1)=C(/O)c1ccco1)C(F)(F)F | – | 22.4 µM [rising, partial curve, poor fit]
54 | COc1ccc(-c2nnc(SCC(=O)c3cccs3)n2-c2ccc(Cl)cc2)cc1 | 12.6 µM [rising, single point] | 22.4 µM [rising, single point]
55 | CCCCCOc1ccc(CSCCNC(=S)Nc2ccccc2)cc1 | – | 35.5 µM [rising, single point]
56 | COc1cc(NC(=O)c2cc(-c3ccco3)on2)c(OC)cc1Cl | 35.5 µM [rising, single point] | 35.5 µM [rising, single point]
57 | CCOc1ccc(NC(=O)COc2ccccc2)c([N+](=O)[O-])c1 | 1.26 µM [falling, single point] | –

Single records (already shown). Order of values: AC50 [1] | AC50 [2]
CCCn1c(N2CCN(C(=O)Nc3ccccc3)CC2)nc2ccccc21 in the list: 0.02 µM [rising, full curve, poor fit] | –
c1ccn2c(SCc3ccc4c(c3)OCO4)nnc2c1 in the list: 35.5 µM [rising, single point] | 22.4 µM [rising, single point]
